Each structure is given as a SMILES string. The list shows a part of the results. Many values rest on one well or one pass, so single values are uncertain.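 Cells were imaged in 1,536-well plates, and nuclei stained with an antibody against cleaved PARP were counted against all DNA-stained nuclei to give the apoptosis fraction. Screening doses were chosen to leave most cells alive, and resting and induced cleaved-PARP levels differ strongly between cell lines.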

Data on 28 compounds can be found in the supplement of paper PMC4604168 (melanoma cell lines).

The first assay relates to A101D. The assay is described as follows: cleaved PARP positive nuclei fraction relative to DMSO control; melanoma cells; higher = more apoptosis. The settings on record: library dose: low library concentration; 72 h.
Regarding `Cc1cc(Nc2cc(N3CCN(C)CC3)nc(/C=C/c3ccccc3)n2)n[nH]1` + CNC(=O)c1cc(Oc2ccc(NC(=O)Nc3ccc(Cl)c(C(F)(F)F)c3)cc2)ccn1 [sorafenib] (first compound 0.04 µM, partner dose 0.4 µM), the “cleaved PARP positive nuclei fraction” value came out at 55.6%.
Still for that read-out and setting: under `O=C(O)c1ccc2c(c1)nc(Nc1cccc(Cl)c1)c1ccncc12` + Nc1nc(F)nc2c1ncn2[C@@H]1O[C@H](CO)[C@@H](O)[C@@H]1O [fludarabine] (first compound 0.4 µM, partner dose 0.2 µM) stands 38.3%; under `O=C(O)c1ccc2c(c1)nc(Nc1cccc(Cl)c1)c1ccncc12` + Nc1cccc2c1CN(C1CCC(=O)NC1=O)C2=O [lenalidomide] (first compound 0.4 µM, partner dose 1 µM), 47.6%; under `Nc1ncn([C@H]2C[C@H](O)[C@@H](CO)O2)c(=O)n1` [decitabine] + OCc1c[nH]c2ccccc12 [Indole-3-carbinol] (first compound 0.1 µM, partner dose 0.8 µM), 95.8%.
As to `CC(C)C[C@H](NC(=O)[C@H](Cc1ccccc1)NC(=O)c1cnccn1)B(O)O` [Bortezomib] + Cn1c(Nc2ccc(C(F)(F)F)cc2)nc2cc(Oc3ccnc(-c4ncc(C(F)(F)F)[nH]4)c3)ccc21 [CHIR265] (first compound 0.001 µM, partner dose 0.08 µM), the “cleaved PARP positive nuclei fraction” value is 508%.
Turning to `Cn1c(=O)n(-c2ccc(C(C)(C)C#N)cc2)c2c3cc(-c4cnc5ccccc5c4)ccc3ncc21` + C[C@]1(c2nc3c(C(N)=O)cccc3[nH]2)CCCN1 [Veliparib] (first compound 0.004 µM, partner dose 1.4 µM), the “cleaved PARP positive nuclei fraction” value worked out at 248%.
With `CS(=O)(=O)CCNCc1ccc(-c2ccc3ncnc(Nc4ccc(OCc5cccc(F)c5)c(Cl)c4)c3c2)o1` [lapatinib] + COCC[n+]1c2c(n(Cc3cnccn3)c1C)C(=O)c1ccccc1C2=O [YM155] (first compound 0.8 µM, partner dose 0.0004 µM), the “cleaved PARP positive nuclei fraction” value is 109%.
For the compound `CCCS(=O)(=O)Nc1ccc(F)c(C(=O)c2c[nH]c3ncc(Cl)cc23)c1F` + Nc1nc(F)nc2c1ncn2[C@@H]1O[C@H](CO)[C@@H](O)[C@@H]1O [fludarabine] (first compound 0.08 µM, partner dose 0.2 µM), the “cleaved PARP positive nuclei fraction” value is 97.1%.
As to `Cc1cc(Nc2cc(N3CCN(C)CC3)nc(/C=C/c3ccccc3)n2)n[nH]1` + CO[C@H]1C[C@@H]2CC[C@@H](C)[C@@](O)(O2)C(=O)C(=O)N2CCCC[C@H]2C(=O)O[C@H]([C@H](C)C[C@@H]2CC[C@@H](OCCO)[C@H](OC)C2)CC(=O)[C@H](C)/C=C(\C)[C@@H](O)[C@@H](OC)C(=O)[C@H](C)C[C@H](C)/C=C/C=C/C=C/1C [everolimus] (first compound 0.04 µM, partner dose 0.02 µM), the “cleaved PARP positive nuclei fraction” value is 123%.
As to `CCCS(=O)(=O)Nc1ccc(F)c(C(=O)c2c[nH]c3ncc(Cl)cc23)c1F` + Nc1ncn([C@H]2C[C@H](O)[C@@H](CO)O2)c(=O)n1 [decitabine] (first compound 0.08 µM, partner dose 0.1 µM), the “cleaved PARP positive nuclei fraction” value came to 97.5%.

Another assay deals with A2058. Described as above. The settings on record: library dose: low library concentration; 72 h.
With `Cn1c(=O)n(-c2ccc(C(C)(C)C#N)cc2)c2c3cc(-c4cnc5ccccc5c4)ccc3ncc21` + CN1CCN(c2ccc3nc(-c4c(N)c5c(F)cccc5[nH]c4=O)[nH]c3c2)CC1 [Dovitinib] (first compound 0.004 µM, partner dose 0.1 µM), the “cleaved PARP positive nuclei fraction” value amounted to 61.9%.
For the compound `O=C(O)c1ccc2c(c1)nc(Nc1cccc(Cl)c1)c1ccncc12` + COc1ccc(Cl)c(Nc2nc3ccccc3nc2NS(=O)(=O)c2cccc(NC(=O)C(C)(C)N)c2)c1 [XL147] (first compound 0.4 µM, partner dose 0.8 µM), the “cleaved PARP positive nuclei fraction” value is 180%.
For `CNC(=O)c1cc(Oc2ccc(NC(=O)Nc3ccc(Cl)c(C(F)(F)F)c3)cc2)ccn1` [sorafenib] + OCc1c[nH]c2ccccc12 [Indole-3-carbinol] (first compound 0.4 µM, partner dose 0.8 µM), the “cleaved PARP positive nuclei fraction” value was found to be 117%.
On to `CO[C@H]1C[C@@H]2CC[C@@H](C)[C@@](O)(O2)C(=O)C(=O)N2CCCC[C@H]2C(=O)O[C@H]([C@H](C)C[C@@H]2CC[C@@H](OCCO)[C@H](OC)C2)CC(=O)[C@H](C)/C=C(\C)[C@@H](O)[C@@H](OC)C(=O)[C@H](C)C[C@H](C)/C=C/C=C/C=C/1C` [everolimus] + O=C(O)c1ccc2c(c1)nc(Nc1cccc(Cl)c1)c1ccncc12 [CX4945] (first compound 0.02 µM, partner dose 0.4 µM), for which the “cleaved PARP positive nuclei fraction” value was 61%.
As for `Cn1c(=O)n(-c2ccc(C(C)(C)C#N)cc2)c2c3cc(-c4cnc5ccccc5c4)ccc3ncc21` + O=C(O)c1ccc2c(c1)nc(Nc1cccc(Cl)c1)c1ccncc12 [CX4945] (first compound 0.004 µM, partner dose 0.4 µM), the “cleaved PARP positive nuclei fraction” value turned out to be 199%.
In the case of `CNC(=O)c1cc(Oc2ccc(NC(=O)Nc3ccc(Cl)c(C(F)(F)F)c3)cc2)ccn1` [sorafenib] + Cn1c(Nc2ccc(C(F)(F)F)cc2)nc2cc(Oc3ccnc(-c4ncc(C(F)(F)F)[nH]4)c3)ccc21 [CHIR265] (first compound 0.4 µM, partner dose 0.08 µM), the “cleaved PARP positive nuclei fraction” value came to 37.9%.
Regarding `Cc1cc(Nc2cc(N3CCN(C)CC3)nc(/C=C/c3ccccc3)n2)n[nH]1` + NC1(c2ccc(-c3nc4ccn5c(=O)[nH]nc5c4cc3-c3ccccc3)cc2)CCC1 [MK2206] (first compound 0.04 µM, partner dose 0.4 µM), the “cleaved PARP positive nuclei fraction” value was determined as 38.5%.
On the same count and under the same terms, under `CC(C)C[C@H](NC(=O)[C@H](Cc1ccccc1)NC(=O)c1cnccn1)B(O)O` [Bortezomib] + CS(=O)(=O)CCNCc1ccc(-c2ccc3ncnc(Nc4ccc(OCc5cccc(F)c5)c(Cl)c4)c3c2)o1 [lapatinib] (first compound 0.001 µM, partner dose 0.8 µM) stands 143%; under `CO[C@H]1C[C@@H]2CC[C@@H](C)[C@@](O)(O2)C(=O)C(=O)N2CCCC[C@H]2C(=O)O[C@H]([C@H](C)C[C@@H]2CC[C@@H](OCCO)[C@H](OC)C2)CC(=O)[C@H](C)/C=C(\C)[C@@H](O)[C@@H](OC)C(=O)[C@H](C)C[C@H](C)/C=C/C=C/C=C/1C` [everolimus] + Cn1nnc2c(C(N)=O)ncn2c1=O [temozolomide] (first compound 0.02 µM, partner dose 2 µM), 65.9%; under `O=C(O)[C@@H]1[O][Sb](=[O])([O][Sb]2(=[O])[O][C@H]([C@H](O)CO)[C@H](O)[C@H](C(=O)O)[O]2)[O][C@H]([C@H](O)CO)[C@@H]1O` (stereo partly drawn) [stibogluconate] + C#Cc1cccc(Nc2ncnc3cc(OCCOC)c(OCCOC)cc23)c1 [erlotinib] (first compound 2 µM, partner dose 0.8 µM), 67.7%.
Turning to `C=C(c1ccc(C(=O)O)cc1)c1cc2c(cc1C)C(C)(C)CCC2(C)C` [Bexarotene] + Nc1nc(F)nc2c1ncn2[C@@H]1O[C@H](CO)[C@@H](O)[C@@H]1O [fludarabine] (first compound 2 µM, partner dose 0.2 µM), the “cleaved PARP positive nuclei fraction” value was 110%.
On to `CNC(=O)c1cc(Oc2ccc(NC(=O)Nc3ccc(Cl)c(C(F)(F)F)c3)cc2)ccn1` [sorafenib] + C=CCNC1=C2C[C@@H](C)C[C@H](OC)[C@H](O)[C@@H](C)/C=C(\C)[C@H](OC(N)=O)[C@@H](OC)/C=C\C=C(/C)C(=O)NC(=CC1=O)C2=O [Tanespimycin] (first compound 0.4 µM, partner dose 0.002 µM), for which the “cleaved PARP positive nuclei fraction” value was found to be 49.8%.
Consider `Cn1c(=O)n(-c2ccc(C(C)(C)C#N)cc2)c2c3cc(-c4cnc5ccccc5c4)ccc3ncc21` + Nc1ncn([C@H]2C[C@H](O)[C@@H](CO)O2)c(=O)n1 [decitabine] (first compound 0.004 µM, partner dose 0.1 µM), for which the “cleaved PARP positive nuclei fraction” value came to 234%.
The same measure, in the same setting: under `CC(C)C[C@H](NC(=O)[C@H](Cc1ccccc1)NC(=O)c1cnccn1)B(O)O` [Bortezomib] + C=C(c1ccc(C(=O)O)cc1)c1cc2c(cc1C)C(C)(C)CCC2(C)C [Bexarotene] (first compound 0.001 µM, partner dose 2 µM) stands 92.1%; under `CCCS(=O)(=O)Nc1ccc(F)c(C(=O)c2c[nH]c3ncc(Cl)cc23)c1F` + COCC[n+]1c2c(n(Cc3cnccn3)c1C)C(=O)c1ccccc1C2=O [YM155] (first compound 0.08 µM, partner dose 0.0004 µM), 82.1%.
On the same count and under the same terms, under `CN1CCN(c2ccc3nc(-c4c(N)c5c(F)cccc5[nH]c4=O)[nH]c3c2)CC1` [Dovitinib] + Cn1c(Nc2ccc(C(F)(F)F)cc2)nc2cc(Oc3ccnc(-c4ncc(C(F)(F)F)[nH]4)c3)ccc21 [CHIR265] (first compound 0.1 µM, partner dose 0.08 µM) stands 265%; under `Cn1c(=O)n(-c2ccc(C(C)(C)C#N)cc2)c2c3cc(-c4cnc5ccccc5c4)ccc3ncc21` + Cn1nnc2c(C(N)=O)ncn2c1=O [temozolomide] (first compound 0.004 µM, partner dose 2 µM), 112%.
`CC(C)C[C@H](NC(=O)[C@H](Cc1ccccc1)NC(=O)c1cnccn1)B(O)O` [Bortezomib] + C[C@@H](Oc1cc(-c2cnn(C3CCNCC3)c2)cnc1N)c1c(Cl)ccc(F)c1Cl [Crizotinib] (first compound 0.001 µM, partner dose 0.2 µM): the “cleaved PARP positive nuclei fraction” value stood at 108%.
